Measurements: publication PMC9938189
No constants are given. Whether binding was seen depends on the method and setting. In cells and extracts the contact can be indirect. Some results given as binding are weak or reduced against the parent protein; the word gives no strength.

Biological target: T1, phosphoglycerate kinase 1 (PGK1) (human (endogenous in PC cell lines)) (UniProt P00558)
T1 sequence: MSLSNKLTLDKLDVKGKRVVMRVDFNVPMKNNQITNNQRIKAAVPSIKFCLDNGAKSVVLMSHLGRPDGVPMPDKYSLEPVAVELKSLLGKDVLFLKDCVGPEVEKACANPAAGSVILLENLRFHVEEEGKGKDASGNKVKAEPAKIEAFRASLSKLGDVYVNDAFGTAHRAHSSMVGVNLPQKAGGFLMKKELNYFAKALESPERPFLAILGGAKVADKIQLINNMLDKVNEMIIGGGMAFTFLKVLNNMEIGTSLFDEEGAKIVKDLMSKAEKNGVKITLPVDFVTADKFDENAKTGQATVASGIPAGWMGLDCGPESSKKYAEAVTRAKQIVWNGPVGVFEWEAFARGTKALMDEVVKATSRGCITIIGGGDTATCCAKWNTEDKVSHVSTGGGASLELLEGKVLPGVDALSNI
Experiment: co-IP; whole cell lysates incubated with primary antibodies against KIF15/USP10/PGK1 or normal IgG at 4 °C overnight, protein A/G agarose beads 2 h, three washes with ice-cold lysis buffer, immunoblot

B1: kinesin 12 (KIF15) (protein, UniProt Q9NS87 1-1388)
chain: MAPGCKTELRSVTNGQSNQPSNEGDAIKVFVRIRPPAERSGSADGEQNLCLSVLSSTSLRLHSNPEPKTFTFDHVADVDTTQESVFATVAKSIVESCMSGYNGTIFAYGQTGSGKTFTMMGPSESDNFSHNLRGVIPRSFEYLFSLIDREKEKAGAGKSFLCKCSFIEIYNEQIYDLLDSASAGLYLREHIKKGVFVVGAVEQVVTSAAEAYQVLSGGWRNRRVASTSMNRESSRSHAVFTITIESMEKSNEIVNIRTSLLNLVDLAGSERQKDTHAEGMRLKEAGNINRSLSCLGQVITALVDVGNGKQRHVCYRDSKLTFLLRDSLGGNAKTAIIANVHPGSRCFGETLSTLNFAQRAKLIKNKAVVNEDTQGNVSQLQAEVKRLKEQLAELASGQTPPESFLTRDKKKTNYMEYFQEAMLFFKKSEQEKKSLIEKVTQLEDLTLKKEKFIQSNKMIVKFREDQIIRLEKLHKESRGGFLPEEQDRLLSELRNEIQTLREQIEHHPRVAKYAMENHSLREENRRLRLLEPVKRAQEMDAQTIAKLEKAFSEISGMEKSDKNQQGFSPKAQKEPCLFANTEKLKAQLLQIQTELNNSKQEYEEFKELTRKRQLELESELQSLQKANLNLENLLEATKACKRQEVSQLNKIHAETLKIITTPTKAYQLHSRPVPKLSPEMGSFGSLYTQNSSILDNDILNEPVPPEMNEQAFEAISEELRTVQEQMSALQAKLDEEEHKNLKLQQHVDKLEHHSTQMQELFSSERIDWTKQQEELLSQLNVLEKQLQETQTKNDFLKSEVHDLRVVLHSADKELSSVKLEYSSFKTNQEKEFNKLSERHMHVQLQLDNLRLENEKLLESKACLQDSYDNLQEIMKFEIDQLSRNLQNFKKENETLKSDLNNLMELLEAEKERNNKLSLQFEEDKENSSKEILKVLEAVRQEKQKETAKCEQQMAKVQKLEESLLATEKVISSLEKSRDSDKKVVADLMNQIQELRTSVCEKTETIDTLKQELKDINCKYNSALVDREESRVLIKKQEVDILDLKETLRLRILSEDIERDMLCEDLAHATEQLNMLTEASKKHSGLLQSAQEELTKKEALIQELQHKLNQKKEEVEQKKNEYNFKMRQLEHVMDSAAEDPQSPKTPPHFQTHLAKLLETQEQEIEDGRASKTSLEHLVTKLNEDREVKNAEILRMKEQLREMENLRLESQQLIEKNWLLQGQLDDIKRQKENSDQNHPDNQQLKNEQEESIKERLAKSKIVEEMLKMKADLEEVQSALYNKEMECLRMTDEVERTQTLESKAFQEKEQLRSKLEEMYEERERTSQEMEMLRKQVECLAEENGKLVGHQNLHQKIQYVVRLKKENVRLAEETEKLRAENVFLKEKKRSES
- binding: binds
